Results: patent publication US20240122954A1 (YEP BIO CO. LTD., priority 2021, published 2024)

Test system: astrocytes
Assay: Inhibition of LPS-induced astrocyte activity (cell number, cell area, GFAP intensity; high content imaging)
Type: cell-based, rats
Settings: LPS-activated astrocytes, 1-10 nM drug, compared to LPS activity
Procedure: The brains of 1-2 day old rats were excised, separated from the cerebral cortex, and cultured. That is, the […] cortex was divided into single cells in high-glucose DMEM medium containing 10% FBS and penicillin-streptomycin solution (5000 units/ml penicillin, 5 mg/ml streptomycin, Corning, USA), and cultured in a 75-cm2T flask. (0.5 hemispheres/flask) in a cell incubator at 5% CO2 and 37° C.
After 1 week of culture, microglia were removed by shaking at 250 rpm for 4 hours, and the cultured astrocytes were harvested using 0.1% trypsin to obtain an astrocyte population. Astrocytes were cultured in 6-well plates previously coated with Poly-D-Lysine (Sigma).
Astrocytes were used after primary culture was isolated from the brain of pup within 1 to 3 days after birth, and the separated astrocytes were treated with LPS at expressing the lowest concentration of IL-6. The drug treatment was performed simultaneously with LPS, and the activity of astrocytes was evaluated through the number of proliferated cells and changes in morphology (FIG. 2).

With `COc1cc2c(cc1OC)C(=O)C(CC1CCN(Cc3ccccc3)CC1)C2` (centres unmarked) [donepezil, reference compound] the “cell area (FIG. 4)” value was “increased” and the “intensity of GFAP (FIG. 4)” value was “almost the same or slight increase”.
